The text below walks through data of article doi:10.1101/2024.10.04.616721.

The chains behind the UniProt entries cited, without tags or fusion partners. Residues count along the entry.
UniProt P25490, 164-301: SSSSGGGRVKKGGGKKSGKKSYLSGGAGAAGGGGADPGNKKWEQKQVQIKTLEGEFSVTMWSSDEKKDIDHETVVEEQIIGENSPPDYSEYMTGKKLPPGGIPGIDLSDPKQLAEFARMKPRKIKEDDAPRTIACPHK
UniProt P25490, whole entry: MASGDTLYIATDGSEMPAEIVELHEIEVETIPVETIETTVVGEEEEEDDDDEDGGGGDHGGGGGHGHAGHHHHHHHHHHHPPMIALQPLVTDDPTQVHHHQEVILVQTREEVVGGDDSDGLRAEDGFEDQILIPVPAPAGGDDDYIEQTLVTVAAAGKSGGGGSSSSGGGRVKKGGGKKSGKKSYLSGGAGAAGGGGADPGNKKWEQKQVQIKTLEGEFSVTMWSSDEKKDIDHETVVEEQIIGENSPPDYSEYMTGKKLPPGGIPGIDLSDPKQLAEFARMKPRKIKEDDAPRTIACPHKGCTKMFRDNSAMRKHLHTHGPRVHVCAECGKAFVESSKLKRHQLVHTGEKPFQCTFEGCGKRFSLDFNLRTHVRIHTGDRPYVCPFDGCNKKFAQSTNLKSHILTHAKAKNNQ
UniProt P25490, 293-414: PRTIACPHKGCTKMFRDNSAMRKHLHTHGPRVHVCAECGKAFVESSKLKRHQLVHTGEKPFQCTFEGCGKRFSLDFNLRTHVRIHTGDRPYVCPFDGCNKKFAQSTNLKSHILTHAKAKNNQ

The exact form of at least one protein or probe is not confirmed. For part of these data: At least one verdict rests on a figure or table, not on a statement of the authors.

What all share (assay): fluorescence polarization
For orientation: In fluorescence polarisation assays a small probe gives low polarisation when free and higher when bound to something large.

One series addresses YY1 REPO-NAB (UniProt P25490). The note with it: residues 164-301.
The next series deals with YY1 full length (UniProt P25490). The note with it: residues 1-414.
For the next series, the target named is YY1 ZnF module (UniProt P25490). The note with it: residues 293-414.

Turning to UUUUUUUUUUUUUUUUUUUUUUUU [24U RNA], the binding result with YY1 REPO-NAB and with YY1 ZnF module was “binds” throughout. Also, the Kd (commonly a measure of binding affinity in units of concentration) with YY1 full length was found to be 1.2 µM.
